Screening data, single-dose tests

By UniProt entry, the sequences of proteins in these tests, tags left out. Residues count along the entry.
UniProt P9WFT3, whole entry: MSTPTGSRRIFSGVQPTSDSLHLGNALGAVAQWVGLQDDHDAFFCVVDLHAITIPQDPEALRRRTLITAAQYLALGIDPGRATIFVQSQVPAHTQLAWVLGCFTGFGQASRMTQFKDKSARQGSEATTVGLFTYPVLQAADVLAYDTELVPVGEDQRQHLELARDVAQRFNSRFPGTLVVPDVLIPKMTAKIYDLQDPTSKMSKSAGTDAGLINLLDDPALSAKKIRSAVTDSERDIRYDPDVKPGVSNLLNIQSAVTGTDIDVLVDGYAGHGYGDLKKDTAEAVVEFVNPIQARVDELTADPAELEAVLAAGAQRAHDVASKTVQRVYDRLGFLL
UniProt Q4DA54, 1-478: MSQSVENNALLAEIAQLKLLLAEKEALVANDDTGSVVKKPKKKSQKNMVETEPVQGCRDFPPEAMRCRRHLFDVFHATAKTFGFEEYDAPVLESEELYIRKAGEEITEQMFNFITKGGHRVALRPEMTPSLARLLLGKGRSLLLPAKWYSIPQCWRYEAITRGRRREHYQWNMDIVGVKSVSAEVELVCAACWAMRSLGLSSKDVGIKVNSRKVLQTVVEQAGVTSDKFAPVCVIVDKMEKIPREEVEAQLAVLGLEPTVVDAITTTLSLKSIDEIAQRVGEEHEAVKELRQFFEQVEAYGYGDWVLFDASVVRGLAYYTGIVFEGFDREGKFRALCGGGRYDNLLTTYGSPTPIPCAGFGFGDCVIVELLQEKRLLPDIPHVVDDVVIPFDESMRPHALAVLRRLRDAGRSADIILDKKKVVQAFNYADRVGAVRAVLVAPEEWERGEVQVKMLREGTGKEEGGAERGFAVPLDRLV
UniProt Q8IDJ8, 1-583: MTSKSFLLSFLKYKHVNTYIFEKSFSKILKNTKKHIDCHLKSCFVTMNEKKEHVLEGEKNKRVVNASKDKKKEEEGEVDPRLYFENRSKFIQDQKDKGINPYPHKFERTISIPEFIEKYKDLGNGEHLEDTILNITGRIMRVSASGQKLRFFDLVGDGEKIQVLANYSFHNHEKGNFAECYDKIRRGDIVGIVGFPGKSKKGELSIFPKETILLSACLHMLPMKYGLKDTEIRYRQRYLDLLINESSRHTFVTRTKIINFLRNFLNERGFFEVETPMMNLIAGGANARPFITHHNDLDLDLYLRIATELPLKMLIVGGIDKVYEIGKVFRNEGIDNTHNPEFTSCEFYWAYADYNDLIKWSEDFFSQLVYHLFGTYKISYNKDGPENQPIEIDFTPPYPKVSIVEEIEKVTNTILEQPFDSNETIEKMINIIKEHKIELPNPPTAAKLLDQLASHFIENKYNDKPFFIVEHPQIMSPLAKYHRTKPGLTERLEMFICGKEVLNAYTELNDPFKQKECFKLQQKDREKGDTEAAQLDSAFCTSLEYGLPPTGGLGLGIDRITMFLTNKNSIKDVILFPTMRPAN
UniProt P9WNZ1, whole entry: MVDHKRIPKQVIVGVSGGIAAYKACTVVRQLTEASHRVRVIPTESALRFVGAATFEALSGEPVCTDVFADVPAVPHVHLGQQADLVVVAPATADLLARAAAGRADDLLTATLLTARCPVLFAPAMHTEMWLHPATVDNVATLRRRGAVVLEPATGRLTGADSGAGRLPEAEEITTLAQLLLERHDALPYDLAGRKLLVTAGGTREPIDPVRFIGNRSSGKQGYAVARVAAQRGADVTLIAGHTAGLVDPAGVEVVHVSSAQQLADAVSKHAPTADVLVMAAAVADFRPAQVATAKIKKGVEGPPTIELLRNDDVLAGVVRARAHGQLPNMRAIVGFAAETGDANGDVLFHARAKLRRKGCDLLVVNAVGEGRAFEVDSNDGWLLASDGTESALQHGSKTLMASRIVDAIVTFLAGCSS
UniProt I6X8D2, whole entry: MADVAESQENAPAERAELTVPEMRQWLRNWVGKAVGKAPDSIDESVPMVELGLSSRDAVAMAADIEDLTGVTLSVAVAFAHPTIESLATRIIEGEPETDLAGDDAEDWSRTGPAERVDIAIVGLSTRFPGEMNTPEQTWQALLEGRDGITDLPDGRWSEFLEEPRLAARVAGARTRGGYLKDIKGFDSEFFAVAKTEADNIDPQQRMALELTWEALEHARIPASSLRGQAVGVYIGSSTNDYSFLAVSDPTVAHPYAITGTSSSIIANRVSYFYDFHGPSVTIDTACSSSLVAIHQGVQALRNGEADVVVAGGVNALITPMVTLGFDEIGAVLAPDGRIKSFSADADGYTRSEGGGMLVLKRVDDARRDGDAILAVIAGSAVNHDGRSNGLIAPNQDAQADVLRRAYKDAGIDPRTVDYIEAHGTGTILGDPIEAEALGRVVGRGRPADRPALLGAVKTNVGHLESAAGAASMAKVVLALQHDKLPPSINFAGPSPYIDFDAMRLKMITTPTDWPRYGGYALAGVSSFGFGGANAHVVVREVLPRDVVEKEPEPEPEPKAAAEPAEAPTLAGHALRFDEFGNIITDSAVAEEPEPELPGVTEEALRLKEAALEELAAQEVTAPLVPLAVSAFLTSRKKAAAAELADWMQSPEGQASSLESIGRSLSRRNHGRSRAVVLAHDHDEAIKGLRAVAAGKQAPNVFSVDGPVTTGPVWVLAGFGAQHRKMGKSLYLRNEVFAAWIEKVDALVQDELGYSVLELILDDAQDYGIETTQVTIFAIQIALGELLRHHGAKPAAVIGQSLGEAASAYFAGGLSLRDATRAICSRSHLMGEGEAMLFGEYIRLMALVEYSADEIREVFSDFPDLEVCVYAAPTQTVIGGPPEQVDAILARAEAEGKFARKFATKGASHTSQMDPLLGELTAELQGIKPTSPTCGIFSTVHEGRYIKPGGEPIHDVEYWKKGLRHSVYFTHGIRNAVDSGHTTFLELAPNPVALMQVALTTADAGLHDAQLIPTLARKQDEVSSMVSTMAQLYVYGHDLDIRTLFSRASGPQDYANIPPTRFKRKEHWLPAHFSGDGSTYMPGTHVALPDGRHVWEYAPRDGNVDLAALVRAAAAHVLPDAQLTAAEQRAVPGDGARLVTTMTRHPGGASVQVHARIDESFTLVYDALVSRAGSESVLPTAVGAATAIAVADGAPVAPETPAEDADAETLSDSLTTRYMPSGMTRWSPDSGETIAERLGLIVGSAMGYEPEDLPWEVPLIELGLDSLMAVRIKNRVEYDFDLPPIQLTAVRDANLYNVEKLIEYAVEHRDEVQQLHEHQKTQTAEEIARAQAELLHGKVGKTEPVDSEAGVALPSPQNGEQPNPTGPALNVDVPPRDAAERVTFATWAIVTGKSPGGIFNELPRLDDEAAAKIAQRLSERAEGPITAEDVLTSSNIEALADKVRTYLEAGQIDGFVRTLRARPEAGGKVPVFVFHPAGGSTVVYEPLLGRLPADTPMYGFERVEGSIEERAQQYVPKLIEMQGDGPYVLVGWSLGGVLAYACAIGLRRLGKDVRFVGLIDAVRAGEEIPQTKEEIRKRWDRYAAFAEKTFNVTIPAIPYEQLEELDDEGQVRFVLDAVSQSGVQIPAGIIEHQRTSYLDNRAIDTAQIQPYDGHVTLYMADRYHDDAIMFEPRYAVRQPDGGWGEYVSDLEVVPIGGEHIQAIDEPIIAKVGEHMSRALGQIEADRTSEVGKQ

The values are deposited in ChEMBL (CHEMBL3988442, “University of Dundee, Small-Polar-MMV Screening Library” (2021)).

Results are given as percent effect. The controls that fix the scale are not given in the record; negative values are as filed. Compounds were drawn at random from those tested, without regard to their results. Two or more numbers in one place are separate tests of the same structure; such repeats can differ widely. A dash means the value is not listed here; it may have been measured.

MtTrpRS: 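Tryptophan-tRNA ligase, Mycobacterium tuberculosis (UniProt P9WFT3). Enzyme assay of tryptophanyl-tRNA synthetase; the read-out is not stated. Compounds at 10 µM. Direction is not recorded; retested compounds ran higher, which suggests that high means inhibition. Of about 65,000 compounds tested this way, about 64 (0.098%) reached 50% or more in at least one test.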
TcHisRS: 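Enzyme assay of histidyl-tRNA synthetase; the read-out is not stated. Target: Histidine-tRNA ligase, Trypanosoma cruzi CL Brener (UniProt Q4DA54). Concentration: 30 µM. Direction is inferred from retests: higher values go with stronger inhibition. Of about 69,000 compounds tested this way, about 31 (0.045%) reached 50% or more in at least one test.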
PfKRS1: 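Enzyme assay of the cytosolic lysyl-tRNA synthetase in 384-well plates, read by luminescence. Target: Lysine-tRNA ligase, Plasmodium falciparum 3D7 (UniProt Q8IDJ8). Tested at 30 µM. Higher reads as stronger inhibition, judged from the few compounds that gave an IC50. Of about 69,000 compounds tested this way, about 49 (0.071%) reached 50% or more in at least one test.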
CoaBC: 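Coenzyme A biosynthesis protein CoaBC, Mycobacterium tuberculosis (UniProt P9WNZ1). Enzyme assay of CoaBC with a phosphate dye (Biomol Green) read at 650 nm. Compounds at 30 µM. Higher reads as stronger inhibition, judged from the few compounds that gave an IC50. Most strong results did not repeat in a second test. About 67,000 compounds were tested under these conditions; 0.06% (about 40) showed 50% or more at least once.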
Pks13 thioesterase: 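Enzyme assay of the thioesterase domain of polyketide synthase 13; the read-out is not stated. Target: Polyketide synthase Pks13, Mycobacterium tuberculosis (UniProt I6X8D2). Tested at 30 µM. The record gives no direction; the compounds picked for IC50 retests had high values, so higher reads as stronger inhibition. Of about 67,000 compounds tested this way, about 300 (0.46%) reached 50% or more in at least one test.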
Leishmania in macrophages: 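Cell assay of Leishmania donovani living inside macrophages; the read-out is not stated. Compounds at 30 µM. The record gives no direction; compounds that gave an IC50 in retests scored well above the rest, so higher reads as stronger inhibition. Size under these conditions: about 69,000 compounds, about 1,000 of them at 50% or above in at least one test.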

Compound,MtTrpRS,TcHisRS,PfKRS1,CoaBC,Pks13 thioesterase,Leishmania in macrophages
CC(=O)c1cc(CC(=O)NCc2ccc(CN(C)C)cc2)cs1,0.2322,5,2.451,-13.86,-22.66,5.932
Brc1cccc(-c2noc(CN3CCOCC3)n2)c1,-2.257,8.14,1.723,2.412,4.148,15.8
N#Cc1ccc(NCCNc2ccc(C(F)(F)F)cn2)nc1,1.887,3.422,-0.861,-2.66,-0.04763,47.66
CCOc1cc(Cl)ccc1CNC(=O)c1ccc(=O)n(C)c1,3.537,-2.679,-0.3708,0.6289,-10.1,20.44
CCS(=O)(=O)N1CCN(C(=O)NC(C)C)CC2(CNC(=O)C2)C1 (centres unmarked),2.075,6.098,0.7144,5.514,-4.512,-3.217
CC(C)CN1C(=O)c2ccc(C(=O)NCCc3c[nH]cn3)cc2C1=O,-2.211,0.5464,3.207,0.9421,-37.41,-31.8
CC(C)N(C)C(=O)C1CSCN1S(=O)(=O)c1cc(Cl)ccc1Cl (centres unmarked),5.491,4.813,-4.42,3.043,-3.158,6.679
Cc1noc(C)c1S(=O)(=O)NCC(O)c1ccc2c(c1)CCO2 (centres unmarked),-0.2472,-2.424,2.888,-0.7663,-26.79,-21.72
CN(CCSc1nncn1CC(F)(F)F)c1ccccc1,-1.769,1.786,10.11,2.39,6.769,10.21
COc1cc(C)ccc1OCc1nc(C(=O)N2CCCNC(=O)C2)co1,-4.562,5.747,8.092,9.2,-6.575,3.007
CC(C)n1cnnc1CN(C)C(=O)c1cc(COc2ccccc2)[nH]n1,-4.852,3.704,4.181,4.049,0.7344,44
Cc1ccc([C@@]2(O)CC[C@@H]3CN(S(=O)(=O)c4cn(C)nc4C)C[C@@H]32)cc1,1.681,0.7463,1.022,2.433,16.64,-
O=C(c1cccc(F)c1)N1CC[C@H]2[C@H]1CCN2CC1CCOCC1,-4.17,6.122,1.064,3.832,-17.67,-
CC(c1ccco1)N(C(=O)c1cc2c([nH]c1=O)CCCC2=O)C1CC1 (centres unmarked),3.21,0,5.128,-0.9804,-5.484,6.749
O=C(O)C(F)(F)F.O=C([C@H]1CCCO1)N1CCCC2(CCN(Cc3ccncc3)C2=O)C1 (some centres unmarked),-,-,-,-,-,-14.99
NC(=O)CN1CCCCC1c1ccc(-n2ccnc2)nc1 (centres unmarked),-2.378,3.846,4.853,-3.088,-0.681,17.89
COc1ccc(S(=O)(=O)C(F)(F)F)cc1NC(=O)CSC,-0.07788,0.4926,6.708,4.114,-27.06,26.21
CCN1CCN(C2CCN(Cc3nnc(C4CC4)o3)CC2)C1=O,6.646,0.8746,-2.682,3.133,-17.2,-3.653
N#CC1=C(N)Nn2c(nnc2-c2ccccc2Br)S1,2.658,4.878,4.465,3.291,48.21,15.41 and -7.346
c1ccc(-c2nnc3n2CCN(c2nc(C4CC4)ns2)C3)cc1,-4.956,15.52,5.731,-5.952,-11.95,-27.23
Cc1ccc(CN2CCC3(CCCN3S(C)(=O)=O)CC2)s1,-4.007,-1.031,3.346,4.187,-9.199,-
O=C(c1ccccn1)N1CCC(S(=O)(=O)c2ccccc2)C1 (centres unmarked),-0.1898,3,-0.1051,2.906,6.79,10.74
Cc1cc(C(N)=O)nc(C2(C)CCCN2Cc2cnn(C)c2)n1 (centres unmarked),1.449,-0.7463,-0.00768,3.163,-24.19,12.41 and 12.3
Cc1c(C(=O)NC2CCCOC2)nnn1-c1ccccc1 (centres unmarked),15.06,0,0.2127,-2.349,-27.04,9.16
CC(NCc1ccc(OCC(N)=O)cc1)c1ccc(Cl)cc1Cl.Cl (centres unmarked),-,-,-,-,-,33.86
COc1cccc(OCC(=O)NS(=O)(=O)c2ccc(Br)s2)c1,1.42,0.2849,0.8441,0.5362,-4.847,12.7
Cc1cc(NC(=O)CN2CCc3cnc(C(C)C)nc3C2)on1,-5.321,6.34,-0.4077,25 and 11.86,-31.45,7.45
COc1ccc(NC(=O)C2CC2)cc1OCc1cccnc1,-1.967,13.29,1.434,0,-37.57,14.78
CCC(CC)C(CNC(=O)Nc1cc(C)nn1C)N1CCOCC1 (centres unmarked),-2.124,-1.504,0.2726,7.969,1.998,8.663
O=C(Cn1ccc(C(=O)O)n1)Nc1c(Cl)cccc1Cl,-1.425,3.478,-0.0965,7.621,11.99,-12.66
Cc1nc(NC(=O)C(C)S(C)(=O)=O)sc1Cc1ccc(F)cc1 (centres unmarked),1.008,1.02,2.761,-1.08,-19.58,14.63
Cn1cc(N2CC3(CCN(CC4CC4)CC3)OCC2=O)cn1,5.118,8.537,2.991,7.018,0.5819,-
CCNC(=O)[C@@H]1C[C@H](NC(=O)Cn2ccnc2)CN1Cc1ccsc1,-0.4944,-1.212,-1.562,1.533,-10,30.82
COc1ccccc1C1CC(=O)Nc2c1c(=O)[nH]n2C(C)C (centres unmarked),-0.6159,3.093,-1.354,-2.358,-2.572,-10.05
[H][C@]12CCN(c3ncccn3)C[C@]1(COC)CC[C@@H](N1CCOCC1)C2,-,-,-,-,-,35.51
Cc1cccc(N2CCN(C(=O)CN3CCN(CCO)CC3)CC2)c1,-2.22,3.306,1.955,-0.2151,-14.99,3.729

The first 3 entries again:

Compound,MtTrpRS,TcHisRS,PfKRS1,CoaBC,Pks13 thioesterase,Leishmania in macrophages
CC(=O)c1cc(CC(=O)NCc2ccc(CN(C)C)cc2)cs1,0.2322,5,2.451,-13.86,-22.66,5.932
Brc1cccc(-c2noc(CN3CCOCC3)n2)c1,-2.257,8.14,1.723,2.412,4.148,15.8
N#Cc1ccc(NCCNc2ccc(C(F)(F)F)cn2)nc1,1.887,3.422,-0.861,-2.66,-0.04763,47.66